Reference: PubChem BioAssay AID686979 (National Center for Advancing Translational Sciences (NCATS), 2013)
The entries are a selection whose mix differs from that of the whole data set. Results filed as inconclusive are left out. Calls of active or inactive are those of the source. Calls come from the whole dose curve; as a rule, active = well fitted inhibition curve with a large enough effect; inconclusive = small, poorly fitted or top-dose-only effect; inactive = flat fitted curve, though single readings scatter.

Experiment: qHTS for Inhibitors of human tyrosyl-DNA phosphodiesterase 1 (TDP1): qHTS in cells in presence of CPT; note: nearly all actives have a fitted effect of over 55% in size
Details: chicken DT40 Tdp1-/-;hTDP1 cells + 20 nM CPT, ATP luminescence, 48 h
Source text: Human tyrosyl-DNA phosphodiesterase 1 (TDP1) is a novel repair gene, and we propose to use it as a new target for anticancer drug development. TDP1 is not an essential protein, but under treatment with topoisomerase I poison (camptothecin: CPT), TDP1 works as a critical factor for cell survival. To directly identify novel TDP1 inhibitors active in a cellular environment, we have knocked-out the Tdp1 gene in chicken DT40 cells (Tdp1-/-) and generated a complemented counterpart cells that contains a stable transfection of the human TDP1 gene (Tdp1-/-;hTDP1 cells). For the primary screen, Tdp1-/-;hTDP1 cells will be exposed to small molecules in the presence or absence of CPT, and their growth kinetics will be evaluated after 48 hours by measuring ATP activity. […] The hit compounds will then be evaluated in the presence or absence of CPT using Tdp1-/- cells. […] In tertiary assays, biochemical gel-based assays will be used to assess whether the hit compounds specifically target TDP1. To this end, we have screened this cell line against the MLSMR in two primary screens. In one screen we add CPT and in the other we screen in the absence of CPT; this AID represents the screen where CPT was present. NIH Chemical Genomics Center [NCGC] NIH Molecular Libraries Probe Centers Network [MLPCN] MLPCN Grant: MH095538 Assay Submitter (PI): Yves Pommier, NCI
DT40-hTDP1 cells with 20 nM Camptothecin (add 20 microL of 1 mM CPT stock in 1 L of cell culture medium) were dispensed at 400 cells/5microL/well in tissue culture treated 1536-well white wall/solid bottom assay plates (Greiner Bio-One North America, NC, U.S.A.) using a Multidrop Combi 8 channel dispenser (Thermo Fisher, Waltham, MA, USA). 23 nL compounds and controls were transferred using the pin tool (Kalypsys, San Diego, CA, USA) to the assay plates. The assay plates were then incubated at 37 masculineC for a minimum 48 hr. Three microL of Cell Titer Glo solution was added to the plates and incubated at RT in dark for 30 min. Luminescence was read using ViewLux (Perkin Elmer) with 1 sec exposure slow speed, high gain and 2x binning.
Potency is the fitted concentration of half-maximal effect.

Structure (SMILES)	Potency
COc1c(O)cc2c(c1OC)-c1ccc(SC)c(=O)cc1C(NC(C)=O)CC2 (stereo not drawn)	active: 16.4 nM
COc1cc2c(c(OC)c1OC)-c1ccc(SC)c(=O)cc1C(NC(C)=O)CC2 (stereo not drawn)	active: 18.4 nM
COc1c(O)cc2c(c1OC)-c1ccc(OC)c(=O)cc1C(NC(C)=O)CC2 (stereo not drawn)	active: 920 nM
